Measured values: the supplement of paper PMC10849652
The other results are listed elsewhere or left out.

Chains of the proteins cited; added tags and fusions are not shown. Lines headed by an entry give the natural chain unless they say otherwise; changes in a name come on top.
UniProt Q6GQQ9: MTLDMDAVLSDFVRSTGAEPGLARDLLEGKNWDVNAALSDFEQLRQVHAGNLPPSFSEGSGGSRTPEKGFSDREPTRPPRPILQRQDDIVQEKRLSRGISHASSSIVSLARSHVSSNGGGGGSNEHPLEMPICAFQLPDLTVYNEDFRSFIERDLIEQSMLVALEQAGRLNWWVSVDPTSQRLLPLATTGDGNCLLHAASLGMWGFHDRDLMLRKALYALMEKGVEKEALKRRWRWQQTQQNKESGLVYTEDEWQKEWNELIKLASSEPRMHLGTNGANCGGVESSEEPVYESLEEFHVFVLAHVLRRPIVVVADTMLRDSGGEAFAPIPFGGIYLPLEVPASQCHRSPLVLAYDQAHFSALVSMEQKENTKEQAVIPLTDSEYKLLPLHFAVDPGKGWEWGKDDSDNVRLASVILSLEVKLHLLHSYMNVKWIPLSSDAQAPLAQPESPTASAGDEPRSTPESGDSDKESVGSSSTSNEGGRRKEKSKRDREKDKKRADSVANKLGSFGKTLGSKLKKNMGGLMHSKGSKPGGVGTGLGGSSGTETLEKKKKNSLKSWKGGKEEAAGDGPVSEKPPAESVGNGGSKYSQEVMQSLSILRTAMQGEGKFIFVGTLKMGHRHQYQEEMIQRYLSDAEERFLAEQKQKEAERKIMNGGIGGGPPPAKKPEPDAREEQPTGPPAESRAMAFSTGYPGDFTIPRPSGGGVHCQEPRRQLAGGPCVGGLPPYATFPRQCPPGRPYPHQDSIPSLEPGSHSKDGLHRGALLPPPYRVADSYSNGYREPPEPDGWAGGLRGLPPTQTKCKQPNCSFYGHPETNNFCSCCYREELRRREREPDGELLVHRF
UniProt Q96SU4: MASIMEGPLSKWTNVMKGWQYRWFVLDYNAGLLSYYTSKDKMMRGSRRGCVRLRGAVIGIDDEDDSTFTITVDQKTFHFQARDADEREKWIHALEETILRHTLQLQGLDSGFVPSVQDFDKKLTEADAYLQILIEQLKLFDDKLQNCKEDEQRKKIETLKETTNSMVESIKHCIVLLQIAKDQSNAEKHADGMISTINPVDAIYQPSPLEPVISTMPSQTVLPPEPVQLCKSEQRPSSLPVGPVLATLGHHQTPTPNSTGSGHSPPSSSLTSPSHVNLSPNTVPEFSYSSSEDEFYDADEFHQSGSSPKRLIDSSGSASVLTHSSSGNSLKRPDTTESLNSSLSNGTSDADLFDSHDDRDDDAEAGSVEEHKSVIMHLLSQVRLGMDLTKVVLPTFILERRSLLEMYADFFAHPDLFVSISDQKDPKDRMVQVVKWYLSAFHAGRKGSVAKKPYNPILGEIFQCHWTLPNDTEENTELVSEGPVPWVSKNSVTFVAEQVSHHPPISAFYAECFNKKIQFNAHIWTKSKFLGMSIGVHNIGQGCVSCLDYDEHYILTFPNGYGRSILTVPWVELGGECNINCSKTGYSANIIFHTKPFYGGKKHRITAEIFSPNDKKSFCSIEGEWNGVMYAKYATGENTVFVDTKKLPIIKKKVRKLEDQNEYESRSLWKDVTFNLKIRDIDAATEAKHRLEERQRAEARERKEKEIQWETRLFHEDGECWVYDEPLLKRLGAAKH
UniProt Q14980: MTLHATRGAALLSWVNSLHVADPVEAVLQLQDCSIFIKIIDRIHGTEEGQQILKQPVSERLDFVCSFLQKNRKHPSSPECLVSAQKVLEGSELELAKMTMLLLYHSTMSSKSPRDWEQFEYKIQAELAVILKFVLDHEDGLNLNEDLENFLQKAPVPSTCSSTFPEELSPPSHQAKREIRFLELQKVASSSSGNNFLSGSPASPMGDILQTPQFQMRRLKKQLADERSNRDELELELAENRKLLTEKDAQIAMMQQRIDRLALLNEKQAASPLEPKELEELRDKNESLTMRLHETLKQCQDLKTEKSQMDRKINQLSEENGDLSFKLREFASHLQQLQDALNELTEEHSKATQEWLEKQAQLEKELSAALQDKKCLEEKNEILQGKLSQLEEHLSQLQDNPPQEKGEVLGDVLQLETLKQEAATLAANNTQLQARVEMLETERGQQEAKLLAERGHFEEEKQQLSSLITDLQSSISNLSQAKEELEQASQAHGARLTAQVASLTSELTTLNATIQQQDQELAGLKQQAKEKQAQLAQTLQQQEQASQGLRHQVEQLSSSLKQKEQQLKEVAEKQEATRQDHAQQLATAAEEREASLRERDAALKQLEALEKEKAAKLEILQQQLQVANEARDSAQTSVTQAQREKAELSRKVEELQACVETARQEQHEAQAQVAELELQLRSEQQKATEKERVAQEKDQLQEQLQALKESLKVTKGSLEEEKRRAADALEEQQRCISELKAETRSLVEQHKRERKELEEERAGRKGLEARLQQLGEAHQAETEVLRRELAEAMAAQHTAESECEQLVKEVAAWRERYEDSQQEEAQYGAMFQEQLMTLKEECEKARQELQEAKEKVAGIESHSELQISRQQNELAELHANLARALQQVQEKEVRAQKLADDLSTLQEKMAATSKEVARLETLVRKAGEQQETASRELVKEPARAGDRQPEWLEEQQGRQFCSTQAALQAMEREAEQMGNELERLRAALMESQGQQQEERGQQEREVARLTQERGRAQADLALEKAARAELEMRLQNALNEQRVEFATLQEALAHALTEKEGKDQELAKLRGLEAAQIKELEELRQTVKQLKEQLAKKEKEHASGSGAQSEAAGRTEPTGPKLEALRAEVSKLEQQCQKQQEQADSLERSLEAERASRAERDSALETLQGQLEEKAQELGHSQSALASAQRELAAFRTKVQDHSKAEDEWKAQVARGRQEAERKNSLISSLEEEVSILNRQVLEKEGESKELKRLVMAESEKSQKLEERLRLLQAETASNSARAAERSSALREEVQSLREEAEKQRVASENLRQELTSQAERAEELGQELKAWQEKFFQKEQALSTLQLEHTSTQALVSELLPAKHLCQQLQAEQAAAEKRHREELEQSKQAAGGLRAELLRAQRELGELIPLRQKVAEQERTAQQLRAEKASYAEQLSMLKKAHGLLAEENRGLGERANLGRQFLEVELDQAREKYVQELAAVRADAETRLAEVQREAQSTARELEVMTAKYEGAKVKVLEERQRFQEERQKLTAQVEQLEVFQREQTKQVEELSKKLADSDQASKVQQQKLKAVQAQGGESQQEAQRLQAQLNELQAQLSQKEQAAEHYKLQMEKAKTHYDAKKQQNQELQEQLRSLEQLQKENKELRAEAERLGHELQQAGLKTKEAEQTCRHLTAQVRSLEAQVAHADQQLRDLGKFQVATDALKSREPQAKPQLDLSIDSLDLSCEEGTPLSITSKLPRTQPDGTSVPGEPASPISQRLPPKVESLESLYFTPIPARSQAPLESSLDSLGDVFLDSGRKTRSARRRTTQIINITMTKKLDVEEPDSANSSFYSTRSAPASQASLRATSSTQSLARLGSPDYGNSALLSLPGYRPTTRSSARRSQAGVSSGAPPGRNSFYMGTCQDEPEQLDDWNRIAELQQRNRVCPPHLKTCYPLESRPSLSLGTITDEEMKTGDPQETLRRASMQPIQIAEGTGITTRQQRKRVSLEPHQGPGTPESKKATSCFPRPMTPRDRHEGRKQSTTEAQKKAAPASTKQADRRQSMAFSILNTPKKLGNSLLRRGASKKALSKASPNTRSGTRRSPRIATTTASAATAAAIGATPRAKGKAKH
UniProt Q96P11: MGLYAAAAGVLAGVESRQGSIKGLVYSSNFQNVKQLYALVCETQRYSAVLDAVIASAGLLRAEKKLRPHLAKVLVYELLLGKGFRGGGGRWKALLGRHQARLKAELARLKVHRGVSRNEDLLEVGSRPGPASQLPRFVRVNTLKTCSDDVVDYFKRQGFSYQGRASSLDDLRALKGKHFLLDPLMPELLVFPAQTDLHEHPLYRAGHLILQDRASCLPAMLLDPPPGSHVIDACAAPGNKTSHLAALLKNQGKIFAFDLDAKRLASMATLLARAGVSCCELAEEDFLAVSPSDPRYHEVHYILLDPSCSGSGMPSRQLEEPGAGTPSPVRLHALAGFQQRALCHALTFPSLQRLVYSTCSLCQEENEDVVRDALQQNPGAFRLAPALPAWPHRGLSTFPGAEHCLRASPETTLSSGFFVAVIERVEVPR
UniProt Q96FW1, whole entry, looked up: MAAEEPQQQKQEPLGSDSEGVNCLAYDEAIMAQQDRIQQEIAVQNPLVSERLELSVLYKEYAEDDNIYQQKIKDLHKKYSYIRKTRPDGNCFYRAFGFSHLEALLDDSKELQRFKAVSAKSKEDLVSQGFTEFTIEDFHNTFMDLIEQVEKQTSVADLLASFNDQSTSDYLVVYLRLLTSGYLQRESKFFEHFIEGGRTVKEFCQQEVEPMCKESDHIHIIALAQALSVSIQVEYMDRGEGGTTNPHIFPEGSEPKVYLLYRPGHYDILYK
UniProt Q8N1F7: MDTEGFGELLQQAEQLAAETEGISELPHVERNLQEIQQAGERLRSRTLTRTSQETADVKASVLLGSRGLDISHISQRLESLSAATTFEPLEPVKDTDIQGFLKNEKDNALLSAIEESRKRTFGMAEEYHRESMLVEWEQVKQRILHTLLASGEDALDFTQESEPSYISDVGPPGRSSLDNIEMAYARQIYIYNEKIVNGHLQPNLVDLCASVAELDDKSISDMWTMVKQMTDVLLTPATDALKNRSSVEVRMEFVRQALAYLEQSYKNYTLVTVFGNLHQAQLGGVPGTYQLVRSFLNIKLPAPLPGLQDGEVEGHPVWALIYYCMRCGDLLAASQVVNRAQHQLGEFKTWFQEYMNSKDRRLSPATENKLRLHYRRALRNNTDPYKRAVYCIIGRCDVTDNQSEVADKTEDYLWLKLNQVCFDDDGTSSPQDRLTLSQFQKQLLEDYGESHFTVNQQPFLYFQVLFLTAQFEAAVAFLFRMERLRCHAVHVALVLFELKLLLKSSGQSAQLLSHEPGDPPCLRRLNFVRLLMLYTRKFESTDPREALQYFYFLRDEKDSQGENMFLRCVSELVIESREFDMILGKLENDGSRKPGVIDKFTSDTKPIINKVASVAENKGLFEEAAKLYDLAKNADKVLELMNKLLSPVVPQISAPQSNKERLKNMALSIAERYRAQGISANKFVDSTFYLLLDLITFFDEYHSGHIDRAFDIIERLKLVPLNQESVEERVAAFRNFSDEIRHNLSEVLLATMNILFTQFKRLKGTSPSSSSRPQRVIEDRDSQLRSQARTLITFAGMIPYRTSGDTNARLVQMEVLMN
UniProt O43482, whole entry, looked up: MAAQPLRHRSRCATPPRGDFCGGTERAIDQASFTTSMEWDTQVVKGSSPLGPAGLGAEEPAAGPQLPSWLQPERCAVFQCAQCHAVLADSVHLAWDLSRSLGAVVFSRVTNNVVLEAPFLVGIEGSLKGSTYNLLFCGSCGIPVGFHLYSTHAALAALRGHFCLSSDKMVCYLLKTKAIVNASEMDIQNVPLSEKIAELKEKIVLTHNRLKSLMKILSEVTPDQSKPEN
UniProt Q9Y530: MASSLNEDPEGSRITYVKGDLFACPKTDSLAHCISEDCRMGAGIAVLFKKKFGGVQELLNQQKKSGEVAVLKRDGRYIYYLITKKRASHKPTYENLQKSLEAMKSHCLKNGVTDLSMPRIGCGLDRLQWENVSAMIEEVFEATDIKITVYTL
UniProt Q92882: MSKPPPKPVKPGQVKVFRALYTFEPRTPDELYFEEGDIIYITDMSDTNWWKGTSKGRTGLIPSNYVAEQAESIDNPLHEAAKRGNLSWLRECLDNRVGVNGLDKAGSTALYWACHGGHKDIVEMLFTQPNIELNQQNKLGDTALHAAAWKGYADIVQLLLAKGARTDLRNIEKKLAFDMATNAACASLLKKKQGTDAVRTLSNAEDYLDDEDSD
UniProt P61970, whole entry, looked up: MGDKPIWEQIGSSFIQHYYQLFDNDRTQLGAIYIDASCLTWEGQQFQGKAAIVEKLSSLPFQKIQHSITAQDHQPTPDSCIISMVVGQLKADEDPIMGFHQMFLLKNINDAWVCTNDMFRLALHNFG
UniProt P13674: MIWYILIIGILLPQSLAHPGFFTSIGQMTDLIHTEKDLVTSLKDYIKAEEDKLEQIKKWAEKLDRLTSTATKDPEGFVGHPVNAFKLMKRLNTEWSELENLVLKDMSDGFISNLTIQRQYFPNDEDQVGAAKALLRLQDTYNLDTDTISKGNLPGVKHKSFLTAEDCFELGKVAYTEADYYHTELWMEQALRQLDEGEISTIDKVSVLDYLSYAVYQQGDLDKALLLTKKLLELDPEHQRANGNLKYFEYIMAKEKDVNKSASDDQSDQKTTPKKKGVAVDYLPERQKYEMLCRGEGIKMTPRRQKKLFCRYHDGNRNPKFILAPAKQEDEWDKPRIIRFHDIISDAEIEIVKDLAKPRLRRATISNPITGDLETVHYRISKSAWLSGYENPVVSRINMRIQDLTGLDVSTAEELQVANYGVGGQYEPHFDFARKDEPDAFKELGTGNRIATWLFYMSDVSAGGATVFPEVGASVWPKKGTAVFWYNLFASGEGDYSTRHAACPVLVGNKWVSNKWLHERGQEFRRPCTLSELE

compound: Cc1sc2c(c1C)C(c1ccc(Cl)cc1)=N[C@@H](CC(=O)OC(C)(C)C)c1nnc(C)n1-2; test: log2 fold change, soluble protein after heating vs DMSO (PISA); higher = thermal stabilisation; K562 cells, 10 uM, 30 min; active = over 0.2 and 3.5 SD of the protein, either way, in both replicates (recomputed)
Method in brief: (§1)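 K562 cells at 2×10^6 cells/mL were exposed to 10 μM compound for 30 min, then aliquots were heated for 3 min across 48°C-58°C, pooled, and extracted in PBS containing 0.5% NP-40 at 4°C. The supernatant after 21,000xg for 90 min was taken as soluble protein and measured by TMTpro 16plex LC-MS/MS with channel sums equalised. Thermal stability is reported relative to control samples, with values from duplicates. Fold changes are given on a log2 scale.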

Target	log2 fold change
OTUD7B (UniProt Q6GQQ9)	inactive: -0.099
OSBPL9 (UniProt Q96SU4)	inactive: 0.107
OPTN (UniProt Q96CV9)	inactive: 0.057
NT5DC1 (UniProt Q5TFE4)	inactive: 0.021
OCRL (UniProt Q01968)	inactive: 0.003
OPA1 isoform 2 (UniProt O60313)	inactive: -0.03
NTMT1 (UniProt Q9BV86)	inactive: -0.118
NUCB2 (UniProt P80303)	inactive: -0.01
NUDT3 (UniProt O95989)	inactive: 0.039
NUMA1 (UniProt Q14980)	inactive: 0.022
NSUN5 isoform 2 (UniProt Q96P11)	inactive: -0.057
NUDCD3 (UniProt Q8IVD9)	inactive: -0.018
NUP160 (UniProt Q12769)	inactive: 0.014
NSMCE2 (UniProt Q96MF7)	inactive: 0.004
PAAF1 (UniProt Q9BRP4)	inactive: -0.014
OGFOD1 (UniProt Q8N543)	inactive: -0.015
OTUB1 (UniProt Q96FW1)	inactive: -0.021

Target	log2 fold change
OSTM1 (UniProt Q86WC4)	inactive: -0.091
OGN (UniProt P20774)	inactive: 0.045
NUP93 (UniProt Q8N1F7)	inactive: -0.013
OIP5 (UniProt O43482)	inactive: -0.05
OARD1 (UniProt Q9Y530)	inactive: -0.02
OTUD6B (UniProt Q8N6M0)	inactive: 0.03
NUP214 isoform 5 (UniProt P35658)	inactive: 0.029
NUP205 (UniProt Q92621)	inactive: -0.043
OSTF1 (UniProt Q92882)	inactive: -0.09
OSGEP (UniProt Q9NPF4)	inactive: 0.008
NUTF2 (UniProt P61970)	inactive: -0.221
NUP62 (UniProt P37198)	inactive: -0.023
NUDT17 (UniProt P0C025)	inactive: -0.186
OSBPL8 (UniProt Q9BZF1)	inactive: -0.018
NUP188 (UniProt Q5SRE5)	inactive: -0.018
P4HA1 (UniProt P13674)	inactive: -0.018

compound: c1ccc([C@@H]2C[C@H]2NC2CCNCC2)cc1; test: as above
Method in brief: as §1

Target	log2 fold change
OTUD7B (UniProt Q6GQQ9)	inactive: -0.049
OSBPL9 (UniProt Q96SU4)	inactive: 0.007
OPTN (UniProt Q96CV9)	inactive: 0.071
NT5DC1 (UniProt Q5TFE4)	inactive: 0.011
OCRL (UniProt Q01968)	inactive: 0.003
OPA1 isoform 2 (UniProt O60313)	inactive: -0.037
NTMT1 (UniProt Q9BV86)	inactive: -0.049
NUCB2 (UniProt P80303)	inactive: 0.026
NUDT3 (UniProt O95989)	inactive: 0.062
NUMA1 (UniProt Q14980)	inactive: 0.014
NSUN5 isoform 2 (UniProt Q96P11)	inactive: 0.079
NUDCD3 (UniProt Q8IVD9)	inactive: -0.019
NUP160 (UniProt Q12769)	inactive: 0.044
NSMCE2 (UniProt Q96MF7)	inactive: -0.017
PAAF1 (UniProt Q9BRP4)	inactive: 0.008
OGFOD1 (UniProt Q8N543)	inactive: -0.007
OTUB1 (UniProt Q96FW1)	inactive: -0.002

Target	log2 fold change
OSTM1 (UniProt Q86WC4)	inactive: -0.013
OGN (UniProt P20774)	inactive: -0.377
NUP93 (UniProt Q8N1F7)	inactive: -0.026
OIP5 (UniProt O43482)	inactive: -0.004
OARD1 (UniProt Q9Y530)	inactive: -0.003
OTUD6B (UniProt Q8N6M0)	inactive: -0.153
NUP214 isoform 5 (UniProt P35658)	inactive: 0.022
NUP205 (UniProt Q92621)	inactive: 0.008
OSTF1 (UniProt Q92882)	inactive: -0.018
OSGEP (UniProt Q9NPF4)	inactive: 0.003
NUTF2 (UniProt P61970)	inactive: 0.016
NUP62 (UniProt P37198)	inactive: -0.039
NUDT17 (UniProt P0C025)	inactive: -0.103
OSBPL8 (UniProt Q9BZF1)	inactive: -0.002
NUP188 (UniProt Q5SRE5)	inactive: -0.018
P4HA1 (UniProt P13674)	inactive: 0.019
